No constants are given. Whether binding was seen depends on the method and setting. Binding seen in cells or lysates may run through a third protein. A yes stands for co-enrichment or nearness to the bait. Other partners may have been found.
B1: MTDH (AEG-1) (protein, UniProt Q86UE4 1-582)
chain: MAARSWQDELAQQAEEGSARLREMLSVGLGFLRTELGLDLGLEPKRYPGWVILVGTGALGLLLLFLLGYGWAAACAGARKKRRSPPRKREEAAAVPAAAPDDLALLKNLRSEEQKKKNRKKLSEKPKPNGRTVEVAEGEAVRTPQSVTAKQPPEIDKKNEKSKKNKKKSKSDAKAVQNSSRHDGKEVDEGAWETKISHREKRQQRKRDKVLTDSGSLDSTIPGIENTITVTTEQLTTASFPVGSKKNKGDSHLNVQVSNFKSGKGDSTLQVSSGLNENLTVNGGGWNEKSVKLSSQISAGEEKWNSVSPASAGKRKTEPSAWSQDTGDANTNGKDWGRSWSDRSIFSGIGSTAEPVSQSTTSDYQWDVSRNQPYIDDEWSGLNGLSSADPNSDWNAPAEEWGNWVDEERASLLKSQEPIPDDQKVSDDDKEKGEGALPTGKSKKKKKKKKKQGEDNSTAQDTEELEKEIREDLPVNTSKTRPKQEKAFSLKTISTSDPAEVLVKNSQPIKTLPPATSTEPSVILSKSDSDKSSSQVPPILQETDKSKSNTKQNSVPPSQTKSETSWESPKQIKKKKKARRET
B2: RRBP1 (p180) (protein, UniProt Q9P2E9 1-1410)
chain: MDIYDTQTLGVVVFGGFMVVSAIGIFLVSTFSMKETSYEEALANQRKEMAKTHHQKVEKKKKEKTVEKKGKTKKKEEKPNGKIPDHDPAPNVTVLLREPVRAPAVAVAPTPVQPPIIVAPVATVPAMPQEKLASSPKDKKKKEKKVAKVEPAVSSVVNSIQVLTSKAAILETAPKEVPMVVVPPVGAKGNTPATGTTQGKKAEGTQNQSKKAEGAPNQGRKAEGTPNQGKKTEGTPNQGKKAEGTPNQGKKAEGTPNQGKKAEGAQNQGKKVDTTPNQGKKVEGAPTQGRKAEGAQNQAKKVEGAQNQGKKAEGAQNQGKKGEGAQNQGKKAEGAQNQGKKAEGAQNQGKKAEGAQNQGKKAEGAQNQGKKAEGAQNQGKKAEGAQNQGKKVEGAQNQGKKAEGAQNQGKKAEGAQNQGKKAEGAQNQGKKAEGAQNQGKKAEGAQNQGKKAEGAQNQGKKAEGAQNQGKKVEGAQNQGKKAEGAQNQGKKAEGAQNQGKKAEGAQNQGQKGEGAQNQGKKTEGAQGKKAERSPNQGKKGEGAPIQGKKADSVANQGTKVEGITNQGKKAEGSPSEGKKAEGSPNQGKKADAAANQGKKTESASVQGRNTDVAQSPEAPKQEAPAKKKSGSKKKGEPGPPDADGPLYLPYKTLVSTVGSMVFNEGEAQRLIEILSEKAGIIQDTWHKATQKGDPVAILKRQLEEKEKLLATEQEDAAVAKSKLRELNKEMAAEKAKAAAGEAKVKKQLVAREQEITAVQARMQASYREHVKEVQQLQGKIRTLQEQLENGPNTQLARLQQENSILRDALNQATSQVESKQNAELAKLRQELSKVSKELVEKSEAVRQDEQQRKALEAKAAAFEKQVLQLQASHRESEEALQKRLDEVSRELCHTQSSHASLRADAEKAQEQQQQMAELHSKLQSSEAEVRSKCEELSGLHGQLQEARAENSQLTERIRSIEALLEAGQARDAQDVQASQAEADQQQTRLKELESQVSGLEKEAIELREAVEQQKVKNNDLREKNWKAMEALATAEQACKEKLLSLTQAKEESEKQLCLIEAQTMEALLALLPELSVLAQQNYTEWLQDLKEKGPTLLKHPPAPAEPSSDLASKLREAEETQSTLQAECDQYRSILAETEGMLRDLQKSVEEEEQVWRAKVGAAEEELQKSRVTVKHLEEIVEKLKGELESSDQVREHTSHLEAELEKHMAAASAECQNYAKEVAGLRQLLLESQSQLDAAKSEAQKQSDELALVRQQLSEMKSHVEDGDIAGAPASSPEAPPAEQDPVQLKTQLEWTEAILEDEQTQRQKLTAEFEEAQTSACRLQEELEKLRTAGPLESSETEEASQLKERLEKEKKLTSDLGRAATRLQELLKTTQEQLAREKDTVKKLQEQLEKAEDGSSSKEGTSV
B3: SRP68 (68 kDa subunit of the signal recognition particle) (protein, UniProt Q9UHB9 1-627)
chain: MAAEKQVPGGGGGGGSGGGGGSGGGGSGGGRGAGGEENKENERPSAGSKANKEFGDSLSLEILQIIKESQQQHGLRHGDFQRYRGYCSRRQRRLRKTLNFKMGNRHKFTGKKVTEELLTDNRYLLLVLMDAERAWSYAMQLKQEANTEPRKRFHLLSRLRKAVKHAEELERLCESNRVDAKTKLEAQAYTAYLSGMLRFEHQEWKAAIEAFNKCKTIYEKLASAFTEEQAVLYNQRVEEISPNIRYCAYNIGDQSAINELMQMRLRSGGTEGLLAEKLEALITQTRAKQAATMSEVEWRGRTVPVKIDKVRIFLLGLADNEAAIVQAESEETKERLFESMLSECRDAIQVVREELKPDQKQRDYILEGEPGKVSNLQYLHSYLTYIKLSTAIKRNENMAKGLQRALLQQQPEDDSKRSPRPQDLIRLYDIILQNLVELLQLPGLEEDKAFQKEIGLKTLVFKAYRCFFIAQSYVLVKKWSEALVLYDRVLKYANEVNSDAGAFKNSLKDLPDVQELITQVRSEKCSLQAAAILDANDAHQTETSSSQVKDNKPLVERFETFCLDPSLVTKQANLVHFPPGFQPIPCKPLFFDLALNHVAFPPLEDKLEQKTKSGLTGYIKGIFGFRS
B4: STT3A (protein, UniProt P46977 1-705)
chain: MTKFGFLRLSYEKQDTLLKLLILSMAAVLSFSTRLFAVLRFESVIHEFDPYFNYRTTRFLAEEGFYKFHNWFDDRAWYPLGRIIGGTIYPGLMITSAAIYHVLHFFHITIDIRNVCVFLAPLFSSFTTIVTYHLTKELKDAGAGLLAAAMIAVVPGYISRSVAGSYDNEGIAIFCMLLTYYMWIKAVKTGSICWAAKCALAYFYMVSSWGGYVFLINLIPLHVLVLMLTGRFSHRIYVAYCTVYCLGTILSMQISFVGFQPVLSSEHMAAFGVFGLCQIHAFVDYLRSKLNPQQFEVLFRSVISLVGFVLLTVGALLMLTGKISPWTGRFYSLLDPSYAKNNIPIIASVSEHQPTTWSSYYFDLQLLVFMFPVGLYYCFSNLSDARIFIIMYGVTSMYFSAVMVRLMLVLAPVMCILSGIGVSQVLSTYMKNLDISRPDKKSKKQQDSTYPIKNEVASGMILVMAFFLITYTFHSTWVTSEAYSSPSIVLSARGGDGSRIIFDDFREAYYWLRHNTPEDAKVMSWWDYGYQITAMANRTILVDNNTWNNTHISRVGQAMASTEEKAYEIMRELDVSYVLVIFGGLTGYSSDDINKFLWMVRIGGSTDTGKHIKENDYYTPTGEFRVDREGSPVLLNCLMYKMCYYRFGQVYTEAKRPPGFDRVRNAEIGNKDFELDVLEEAYTTEHWLVRIYKVKDLDNRGLSRT
B5: STT3B (protein, UniProt Q8TCJ2 1-826)
chain: MAEPSAPESKHKSSLNSSPWSGLMALGNSRHGHHGPGAQCAHKAAGGAAPPKPAPAGLSGGLSQPAGWQSLLSFTILFLAWLAGFSSRLFAVIRFESIIHEFDPWFNYRSTHHLASHGFYEFLNWFDERAWYPLGRIVGGTVYPGLMITAGLIHWILNTLNITVHIRDVCVFLAPTFSGLTSISTFLLTRELWNQGAGLLAACFIAIVPGYISRSVAGSFDNEGIAIFALQFTYYLWVKSVKTGSVFWTMCCCLSYFYMVSAWGGYVFIINLIPLHVFVLLLMQRYSKRVYIAYSTFYIVGLILSMQIPFVGFQPIRTSEHMAAAGVFALLQAYAFLQYLRDRLTKQEFQTLFFLGVSLAAGAVFLSVIYLTYTGYIAPWSGRFYSLWDTGYAKIHIPIIASVSEHQPTTWVSFFFDLHILVCTFPAGLWFCIKNINDERVFVALYAISAVYFAGVMVRLMLTLTPVVCMLSAIAFSNVFEHYLGDDMKRENPPVEDSSDEDDKRNQGNLYDKAGKVRKHATEQEKTEEGLGPNIKSIVTMLMLMLLMMFAVHCTWVTSNAYSSPSVVLASYNHDGTRNILDDFREAYFWLRQNTDEHARVMSWWDYGYQIAGMANRTTLVDNNTWNNSHIALVGKAMSSNETAAYKIMRTLDVDYVLVIFGGVIGYSGDDINKFLWMVRIAEGEHPKDIRESDYFTPQGEFRVDKAGSPTLLNCLMYKMSYYRFGEMQLDFRTPPGFDRTRNAEIGNKDIKFKHLEEAFTSEHWLVRIYKVKAPDNRETLDHKPRVTNIFPKQKYLSKKTTKRKRGYIKNKLVFKKGKKISKKTV
B6: SSR1 (protein, UniProt P43307 19-286)
chain: VLFRGGPRGLLAVAQDLTEDEETVEDSIIEDEDDEAEVEEDEPTDLVEDKEEEDVSGEPEASPSADTTILFVKGEDFPANNIVKFLVGFTNKGTEDFIVESLDASFRYPQDYQFYIQNFTALPLNTVVPPQRQATFEYSFIPAEPMGGRPFGLVINLNYKDLNGNVFQDAVFNQTVTVIEREDGLDGETIFMYMFLAGLGLLVIVGLHQLLESRKRKRPIQKVEMGTSSQNDVDMSWIPQETLNQINKASPRRLPRKRAQKRSVGSDE

Amino acid sequences for entries named in this document (tags omitted).
UniProt P60468: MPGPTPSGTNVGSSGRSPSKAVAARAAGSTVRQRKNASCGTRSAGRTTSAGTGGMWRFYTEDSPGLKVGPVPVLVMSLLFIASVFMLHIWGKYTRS
UniProt Q07065: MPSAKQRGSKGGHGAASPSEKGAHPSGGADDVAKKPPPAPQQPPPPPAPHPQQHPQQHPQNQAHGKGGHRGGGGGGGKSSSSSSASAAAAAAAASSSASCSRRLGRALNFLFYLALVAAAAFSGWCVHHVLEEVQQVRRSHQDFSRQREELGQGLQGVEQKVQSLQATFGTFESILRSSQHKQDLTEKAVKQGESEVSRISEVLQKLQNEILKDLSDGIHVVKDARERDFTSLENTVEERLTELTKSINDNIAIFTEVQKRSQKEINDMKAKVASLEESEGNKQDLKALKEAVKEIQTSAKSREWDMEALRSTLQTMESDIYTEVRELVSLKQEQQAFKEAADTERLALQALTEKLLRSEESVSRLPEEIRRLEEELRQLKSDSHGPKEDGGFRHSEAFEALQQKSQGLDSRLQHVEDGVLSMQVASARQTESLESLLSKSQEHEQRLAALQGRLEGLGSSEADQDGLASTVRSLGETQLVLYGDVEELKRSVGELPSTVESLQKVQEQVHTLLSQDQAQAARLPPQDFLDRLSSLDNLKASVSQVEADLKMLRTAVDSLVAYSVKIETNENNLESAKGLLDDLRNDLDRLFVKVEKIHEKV
UniProt P05387: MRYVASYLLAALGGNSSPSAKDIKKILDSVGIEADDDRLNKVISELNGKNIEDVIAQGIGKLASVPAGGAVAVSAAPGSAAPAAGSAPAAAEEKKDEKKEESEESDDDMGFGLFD
UniProt P20020: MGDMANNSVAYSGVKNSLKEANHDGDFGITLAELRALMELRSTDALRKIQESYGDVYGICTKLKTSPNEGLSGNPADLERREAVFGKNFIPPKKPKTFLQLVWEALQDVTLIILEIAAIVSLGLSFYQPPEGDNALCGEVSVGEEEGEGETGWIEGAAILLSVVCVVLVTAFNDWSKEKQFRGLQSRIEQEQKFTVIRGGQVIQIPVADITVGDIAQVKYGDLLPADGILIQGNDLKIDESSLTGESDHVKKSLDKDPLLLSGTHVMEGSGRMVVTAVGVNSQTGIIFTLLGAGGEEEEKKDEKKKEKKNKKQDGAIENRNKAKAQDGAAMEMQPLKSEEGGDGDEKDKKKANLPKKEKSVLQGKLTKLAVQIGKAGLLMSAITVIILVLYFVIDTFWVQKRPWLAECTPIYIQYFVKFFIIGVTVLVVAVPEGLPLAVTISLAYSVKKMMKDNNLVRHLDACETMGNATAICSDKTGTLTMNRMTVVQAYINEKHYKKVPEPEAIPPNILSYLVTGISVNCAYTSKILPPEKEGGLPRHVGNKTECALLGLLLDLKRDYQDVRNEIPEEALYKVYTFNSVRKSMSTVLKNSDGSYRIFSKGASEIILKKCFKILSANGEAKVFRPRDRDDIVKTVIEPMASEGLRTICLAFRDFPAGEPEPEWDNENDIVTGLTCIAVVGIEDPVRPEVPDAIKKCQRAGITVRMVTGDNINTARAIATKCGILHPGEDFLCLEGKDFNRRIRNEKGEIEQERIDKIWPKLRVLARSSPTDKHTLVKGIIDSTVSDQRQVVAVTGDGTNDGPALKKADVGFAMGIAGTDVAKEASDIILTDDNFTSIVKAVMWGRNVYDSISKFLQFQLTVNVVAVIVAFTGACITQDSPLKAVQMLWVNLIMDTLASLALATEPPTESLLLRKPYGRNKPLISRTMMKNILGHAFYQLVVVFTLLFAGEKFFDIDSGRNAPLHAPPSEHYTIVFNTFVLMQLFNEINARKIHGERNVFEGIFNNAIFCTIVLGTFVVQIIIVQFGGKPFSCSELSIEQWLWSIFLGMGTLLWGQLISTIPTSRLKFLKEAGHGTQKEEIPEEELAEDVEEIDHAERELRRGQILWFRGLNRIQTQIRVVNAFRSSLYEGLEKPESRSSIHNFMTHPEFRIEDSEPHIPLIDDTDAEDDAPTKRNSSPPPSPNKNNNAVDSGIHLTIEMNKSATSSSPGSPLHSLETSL
UniProt Q14573: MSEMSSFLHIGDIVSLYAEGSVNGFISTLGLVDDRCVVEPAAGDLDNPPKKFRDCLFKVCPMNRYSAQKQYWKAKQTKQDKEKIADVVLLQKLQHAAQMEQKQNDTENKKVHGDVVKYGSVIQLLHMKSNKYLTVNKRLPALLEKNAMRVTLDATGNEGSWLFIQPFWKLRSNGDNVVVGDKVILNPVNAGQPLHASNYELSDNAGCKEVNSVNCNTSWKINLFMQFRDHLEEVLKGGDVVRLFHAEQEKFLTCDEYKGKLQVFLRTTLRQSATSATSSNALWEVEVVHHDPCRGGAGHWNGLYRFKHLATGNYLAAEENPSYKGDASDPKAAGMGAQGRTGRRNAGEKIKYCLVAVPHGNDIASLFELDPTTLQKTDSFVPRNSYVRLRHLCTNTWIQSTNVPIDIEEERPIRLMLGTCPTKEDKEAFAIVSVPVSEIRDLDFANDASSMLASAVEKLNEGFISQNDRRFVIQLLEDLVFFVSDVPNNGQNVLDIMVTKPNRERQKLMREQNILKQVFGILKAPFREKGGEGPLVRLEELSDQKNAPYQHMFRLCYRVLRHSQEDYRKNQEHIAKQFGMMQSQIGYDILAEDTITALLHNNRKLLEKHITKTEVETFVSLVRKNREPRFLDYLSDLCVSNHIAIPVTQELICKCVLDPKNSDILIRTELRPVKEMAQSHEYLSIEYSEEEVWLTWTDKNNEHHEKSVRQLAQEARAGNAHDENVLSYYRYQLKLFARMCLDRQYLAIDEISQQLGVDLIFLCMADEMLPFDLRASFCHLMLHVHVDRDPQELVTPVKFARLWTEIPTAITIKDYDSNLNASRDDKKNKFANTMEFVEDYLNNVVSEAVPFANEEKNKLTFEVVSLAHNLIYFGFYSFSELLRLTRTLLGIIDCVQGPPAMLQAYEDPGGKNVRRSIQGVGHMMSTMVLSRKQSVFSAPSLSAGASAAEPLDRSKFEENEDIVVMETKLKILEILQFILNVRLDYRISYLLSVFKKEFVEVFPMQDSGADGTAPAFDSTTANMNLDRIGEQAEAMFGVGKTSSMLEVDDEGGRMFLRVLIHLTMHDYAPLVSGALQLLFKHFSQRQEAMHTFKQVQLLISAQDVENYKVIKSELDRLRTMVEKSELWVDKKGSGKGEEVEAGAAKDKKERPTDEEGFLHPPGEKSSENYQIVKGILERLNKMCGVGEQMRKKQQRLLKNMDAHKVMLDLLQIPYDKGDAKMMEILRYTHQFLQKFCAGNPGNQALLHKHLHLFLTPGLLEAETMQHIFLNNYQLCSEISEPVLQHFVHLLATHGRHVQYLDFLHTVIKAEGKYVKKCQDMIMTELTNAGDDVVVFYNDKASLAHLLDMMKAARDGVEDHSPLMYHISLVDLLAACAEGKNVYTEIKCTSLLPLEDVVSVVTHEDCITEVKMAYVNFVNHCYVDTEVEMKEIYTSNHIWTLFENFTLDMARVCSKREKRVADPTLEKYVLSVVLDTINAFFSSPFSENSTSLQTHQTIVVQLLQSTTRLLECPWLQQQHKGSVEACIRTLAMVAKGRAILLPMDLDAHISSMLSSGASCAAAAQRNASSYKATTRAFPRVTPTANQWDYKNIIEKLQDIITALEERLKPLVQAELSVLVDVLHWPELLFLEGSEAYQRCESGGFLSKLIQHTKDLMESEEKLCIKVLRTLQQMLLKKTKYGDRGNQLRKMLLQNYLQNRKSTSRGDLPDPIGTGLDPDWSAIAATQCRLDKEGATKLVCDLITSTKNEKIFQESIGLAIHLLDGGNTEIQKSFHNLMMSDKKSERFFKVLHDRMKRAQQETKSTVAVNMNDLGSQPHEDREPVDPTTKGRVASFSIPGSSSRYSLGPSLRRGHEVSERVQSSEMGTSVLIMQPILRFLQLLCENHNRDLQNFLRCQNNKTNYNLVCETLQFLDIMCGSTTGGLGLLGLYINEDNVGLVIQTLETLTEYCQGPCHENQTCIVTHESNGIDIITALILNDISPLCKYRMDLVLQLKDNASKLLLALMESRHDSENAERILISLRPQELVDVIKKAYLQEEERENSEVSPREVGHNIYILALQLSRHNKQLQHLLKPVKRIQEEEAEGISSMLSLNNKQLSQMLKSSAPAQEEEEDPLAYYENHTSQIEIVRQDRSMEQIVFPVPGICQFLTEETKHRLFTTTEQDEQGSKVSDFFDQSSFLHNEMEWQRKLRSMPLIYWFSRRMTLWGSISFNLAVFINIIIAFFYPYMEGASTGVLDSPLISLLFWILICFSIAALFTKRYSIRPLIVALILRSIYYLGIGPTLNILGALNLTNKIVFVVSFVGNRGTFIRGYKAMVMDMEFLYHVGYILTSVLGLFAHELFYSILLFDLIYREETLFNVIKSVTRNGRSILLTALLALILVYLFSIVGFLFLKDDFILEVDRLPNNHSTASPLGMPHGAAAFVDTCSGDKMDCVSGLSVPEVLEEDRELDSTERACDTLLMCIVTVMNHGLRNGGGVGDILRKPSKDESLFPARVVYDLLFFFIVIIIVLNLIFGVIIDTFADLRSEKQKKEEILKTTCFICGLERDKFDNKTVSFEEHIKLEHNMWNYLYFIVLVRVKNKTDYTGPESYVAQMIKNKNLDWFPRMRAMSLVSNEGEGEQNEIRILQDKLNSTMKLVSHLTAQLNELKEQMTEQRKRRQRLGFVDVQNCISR
UniProt Q9UGP8: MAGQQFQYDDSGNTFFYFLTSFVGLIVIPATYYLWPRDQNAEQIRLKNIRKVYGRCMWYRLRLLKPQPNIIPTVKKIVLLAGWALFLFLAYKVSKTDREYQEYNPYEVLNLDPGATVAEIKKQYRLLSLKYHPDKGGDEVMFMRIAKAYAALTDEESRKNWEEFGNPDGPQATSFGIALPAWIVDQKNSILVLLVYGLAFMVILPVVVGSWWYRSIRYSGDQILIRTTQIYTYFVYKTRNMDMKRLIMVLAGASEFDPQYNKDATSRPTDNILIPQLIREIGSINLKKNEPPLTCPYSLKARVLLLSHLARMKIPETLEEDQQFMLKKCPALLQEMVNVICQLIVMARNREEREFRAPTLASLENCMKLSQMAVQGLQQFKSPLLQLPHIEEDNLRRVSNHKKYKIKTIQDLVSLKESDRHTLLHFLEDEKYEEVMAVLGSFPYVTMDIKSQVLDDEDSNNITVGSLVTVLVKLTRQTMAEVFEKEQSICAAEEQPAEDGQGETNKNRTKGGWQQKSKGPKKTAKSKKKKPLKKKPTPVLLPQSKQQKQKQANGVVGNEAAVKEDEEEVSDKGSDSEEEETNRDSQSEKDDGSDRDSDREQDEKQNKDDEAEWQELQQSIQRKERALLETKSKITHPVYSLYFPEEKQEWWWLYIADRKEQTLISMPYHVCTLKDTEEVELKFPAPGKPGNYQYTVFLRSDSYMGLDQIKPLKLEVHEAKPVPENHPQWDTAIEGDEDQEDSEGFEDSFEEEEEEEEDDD

How the values were obtained:
Experiment in all cases: proximity labelling
[1] = biological target: T1, LRRC59-BioID (UniProt Q96AG4)
T1 sequence: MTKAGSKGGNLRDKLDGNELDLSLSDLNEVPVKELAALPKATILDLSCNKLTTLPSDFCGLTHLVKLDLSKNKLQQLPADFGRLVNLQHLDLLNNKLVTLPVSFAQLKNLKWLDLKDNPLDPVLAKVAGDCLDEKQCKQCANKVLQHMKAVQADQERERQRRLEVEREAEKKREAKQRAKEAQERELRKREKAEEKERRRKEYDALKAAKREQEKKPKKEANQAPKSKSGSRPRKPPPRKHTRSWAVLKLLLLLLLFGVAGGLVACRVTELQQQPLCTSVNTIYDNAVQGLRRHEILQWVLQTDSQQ

[2] = biological target: Sec61β-BioID (UniProt P60468)
[3] = biological target: T2, Ribophorin I-BioID (UniProt P04843)
T2 sequence: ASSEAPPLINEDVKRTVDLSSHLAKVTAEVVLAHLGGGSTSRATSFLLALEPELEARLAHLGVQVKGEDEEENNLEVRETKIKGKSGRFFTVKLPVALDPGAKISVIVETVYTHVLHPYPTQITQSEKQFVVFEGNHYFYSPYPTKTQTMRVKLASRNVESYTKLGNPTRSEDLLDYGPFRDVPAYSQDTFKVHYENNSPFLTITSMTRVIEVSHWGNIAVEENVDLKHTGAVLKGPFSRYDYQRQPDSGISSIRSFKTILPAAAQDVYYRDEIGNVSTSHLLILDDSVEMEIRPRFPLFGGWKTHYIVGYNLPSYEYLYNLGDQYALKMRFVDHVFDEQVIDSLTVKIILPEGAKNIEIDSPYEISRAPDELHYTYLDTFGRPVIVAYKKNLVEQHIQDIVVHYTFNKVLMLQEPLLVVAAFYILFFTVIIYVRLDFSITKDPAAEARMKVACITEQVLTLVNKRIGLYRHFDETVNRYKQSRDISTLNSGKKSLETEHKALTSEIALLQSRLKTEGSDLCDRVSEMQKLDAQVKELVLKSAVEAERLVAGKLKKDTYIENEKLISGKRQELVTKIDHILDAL

Molecule | binding [1] | binding [2] | binding [3]
CKAP4 (from UniProt Q07065 1-602) | binds | – | –
LA2 (from UniProt P05387 1-115) | binds | binds | –
IP3 receptor/calcium channel ITPR2 (from UniProt Q14571 1-2701) | – | – | binds
calcium ATPase ATP2B1 (from UniProt P20020 1-1220) | – | binds | –
IP3 receptor/calcium channel ITPR3 (from UniProt Q14573 1-2671) | – | binds | –
Sec63 homolog (from UniProt Q9UGP8 1-760) | binds | binds | –
B1 | binds | – | –
B2 | binds | – | –
B3 | binds | – | –
B4 | – | – | binds
B5 | – | – | binds
B6 | – | – | binds

From paper doi:10.1101/398669
